Laboratory results published in patent EP4410284A1, “COMPOUND AND METHOD FOR THE TREATMENT OF ZELLWEGER SPECTRUM DISORDER” (Apteeus, priority 2023, dated 2024).

Tested on: GM16513 cells
Test: Catalase import immunofluorescence, high-content screening (% importing cells)
Format: cell-based
Conditions: Homo sapiens, 72 h, dose response with 6 concentrations, 3 days

- EC50: 1090 nM
Structure (SMILES): O=C(CCCCCCC(=O)Nc1ccccc1)NO [Vorinostat]
